Source: PubChem BioAssay AID493246 (Drosophila RNAi Screening Center, 2011)
In all, the deposit lists about 21,000 reagents; this is a random part of those that have a named target and a result. Over the whole deposit, 429 (2%) are marked active. 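Values are raw and not normalised between plates; calls rest on per-plate z-scores that were not deposited.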 Names joined by + are all predicted targets of the reagent. Reagent sequences are not shown. The record does not give: the amount of reagent, the time to read-out.

Test: 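Genes fly cells need to grow and stay alive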 (primary screen)
System: Drosophila Kc and S2R+ cells
Reagent: long dsRNA against Drosophila genes
Measured: 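Raw, unnormalised count of remaining cells in each well; per-plate z-scores of cell number underlie the calls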
Scale: Kc cell number and S2R+ cell number: higher = more cells remaining
Active means: 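Active when the per-plate z-score of cell number is 3 or more in the direction of fewer cells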

With Cpn (GeneID 41474), what was measured?
Kc cell number, rep 1: 1.69e6; Kc cell number, rep 2: 1.75e6; S2R+ cell number, rep 1: 1.40e6; S2R+ cell number, rep 2: 1.48e6; outcome: inactive

Which result is listed for CG5767 (GeneID 37055)?
Kc cell number, rep 1: 1.56e6; Kc cell number, rep 2: 1.62e6; S2R+ cell number, rep 1: 1.18e6; S2R+ cell number, rep 2: 1.20e6; outcome: inactive

With CG15125 (GeneID 37258), what does the deposit list?
Kc cell number, rep 1: 1.73e6; Kc cell number, rep 2: 1.72e6; S2R+ cell number, rep 1: 1.19e6; S2R+ cell number, rep 2: 1.30e6; outcome: inactive

How did the screen score Sar1 (GeneID 42615)?
Kc cell number, rep 1: 1.81e6; Kc cell number, rep 2: 1.80e6; S2R+ cell number, rep 1: 1.23e6; S2R+ cell number, rep 2: 1.30e6; outcome: inactive

What is on record for PpN58A (GeneID 37493)?
Kc cell number, rep 1: 1.43e6; Kc cell number, rep 2: 1.50e6; S2R+ cell number, rep 1: 1.04e6; S2R+ cell number, rep 2: 1.08e6; outcome: inactive

What is on record for sstn (GeneID 39643)?
Kc cell number, rep 1: 1.67e6; Kc cell number, rep 2: 1.73e6; S2R+ cell number, rep 1: 1.27e6; S2R+ cell number, rep 2: 1.38e6; outcome: inactive

For Send1 (GeneID 33407), what was measured?
Kc cell number, rep 1: 1.45e6; Kc cell number, rep 2: 1.50e6; S2R+ cell number, rep 1: 1.04e6; S2R+ cell number, rep 2: 1.20e6; outcome: inactive

Which result is listed for Cdk4 (GeneID 36854)?
Kc cell number, rep 1: 1.33e6; Kc cell number, rep 2: 1.39e6; S2R+ cell number, rep 1: 7.51e5; S2R+ cell number, rep 2: 8.31e5; outcome: inactive

Just “S2R+ cell number, rep 2” (3 entries from above):
Cpn (GeneID 41474) = 1.48e6
CG5767 (GeneID 37055) = 1.20e6
CG15125 (GeneID 37258) = 1.30e6

More results follow.
For mbm + CG11555, how do the results read?
Kc cell number, rep 1: 1.63e6; Kc cell number, rep 2: 1.63e6; S2R+ cell number, rep 1: 1.10e6; S2R+ cell number, rep 2: 1.28e6; outcome: inactive

With CG34165 (GeneID 5740685), what was measured?
Kc cell number, rep 1: 5.82e5; Kc cell number, rep 2: 8.80e5; S2R+ cell number, rep 1: 5.17e5; S2R+ cell number, rep 2: 5.99e5; outcome: active

What did the screen give for His3:CG33818 + His3:CG33857 + His3:CG33806 + 20 more?
Kc cell number, rep 1: 7.38e5; Kc cell number, rep 2: 8.40e5; S2R+ cell number, rep 1: 3.40e5; S2R+ cell number, rep 2: 4.49e5; outcome: active

For yps (GeneID 39377), how do the results read?
Kc cell number, rep 1: 1.24e6; Kc cell number, rep 2: 1.30e6; S2R+ cell number, rep 1: 1.32e6; S2R+ cell number, rep 2: 1.38e6; outcome: inactive

What did the screen give for GCS1 (GeneID 32073)?
Kc cell number, rep 1: 5.43e5; S2R+ cell number, rep 1: 8.61e5; outcome: inactive

What did the screen give for RpS20 (GeneID 42464)?
Kc cell number, rep 1: 8.50e5; Kc cell number, rep 2: 8.64e5; S2R+ cell number, rep 1: 7.45e5; S2R+ cell number, rep 2: 8.60e5; outcome: inactive

With Nup37 (GeneID 43040), what was measured?
Kc cell number, rep 1: 1.39e6; Kc cell number, rep 2: 1.45e6; S2R+ cell number, rep 1: 1.02e6; S2R+ cell number, rep 2: 1.10e6; outcome: inactive

With CG5934 (GeneID 43289), what does the deposit list?
Kc cell number, rep 1: 1.52e6; Kc cell number, rep 2: 1.56e6; S2R+ cell number, rep 1: 1.08e6; S2R+ cell number, rep 2: 1.16e6; outcome: inactive

How did the screen score PIG-H + Kmn2?
Kc cell number, rep 1: 1.55e6; Kc cell number, rep 2: 1.71e6; S2R+ cell number, rep 1: 9.42e5; S2R+ cell number, rep 2: 1.09e6; outcome: inactive

What is on record for Noc2 (GeneID 35386)?
Kc cell number, rep 1: 1.28e6; Kc cell number, rep 2: 1.36e6; S2R+ cell number, rep 1: 9.22e5; S2R+ cell number, rep 2: 1.02e6; outcome: inactive

What did the screen give for CG33474 (GeneID 2768725)?
Kc cell number, rep 1: 1.45e6; Kc cell number, rep 2: 1.38e6; S2R+ cell number, rep 1: 1.03e6; S2R+ cell number, rep 2: 1.15e6; outcome: inactive

With Acyp (GeneID 34807), how do the results read?
Kc cell number, rep 1: 1.65e6; Kc cell number, rep 2: 1.68e6; S2R+ cell number, rep 1: 1.35e6; S2R+ cell number, rep 2: 1.46e6; outcome: inactive

For Ucp4C (GeneID 33832), what does the deposit list?
Kc cell number, rep 1: 1.55e6; Kc cell number, rep 2: 1.40e6; S2R+ cell number, rep 1: 1.08e6; S2R+ cell number, rep 2: 1.25e6; outcome: inactive
